Laboratory results taken from article PMC10938136.
These are yes or no findings as the source states them, for the method shown. A result given as binding can be weak or reduced; the word gives no strength. For part of these data: In cells and extracts the contact can be indirect.

Protein sequences, listed by entry. Tags and fused reporters are not part of them. Lines headed by an entry give the natural chain unless they say otherwise; changes in a name come on top.
UniProt F2QY05: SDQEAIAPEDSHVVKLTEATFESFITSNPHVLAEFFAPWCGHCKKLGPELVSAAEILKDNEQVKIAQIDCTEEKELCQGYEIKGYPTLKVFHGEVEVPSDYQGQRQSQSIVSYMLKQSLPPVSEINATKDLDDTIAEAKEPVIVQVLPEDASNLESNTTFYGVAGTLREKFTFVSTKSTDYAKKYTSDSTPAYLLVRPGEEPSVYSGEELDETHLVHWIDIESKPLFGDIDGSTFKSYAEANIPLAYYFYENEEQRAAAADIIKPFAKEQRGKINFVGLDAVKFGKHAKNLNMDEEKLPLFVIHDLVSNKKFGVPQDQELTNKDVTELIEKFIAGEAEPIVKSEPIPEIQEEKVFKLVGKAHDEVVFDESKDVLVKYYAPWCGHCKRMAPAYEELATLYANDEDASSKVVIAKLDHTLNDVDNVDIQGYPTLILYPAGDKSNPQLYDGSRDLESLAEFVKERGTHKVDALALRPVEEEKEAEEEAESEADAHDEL

Assays:
[1] = target: Komagataella phaffii Ero1 (Komagataella phaffii) (UniProt F2QNN1); assay: pull-down; co-expression in E. coli cytoplasm (small scale, 20 °C), cleared lysate on HisPur cobalt agarose (IMAC), elution with 50 mM EDTA in 20 mM sodium phosphate, 150 mM NaCl, pH 7; SDS-PAGE, Coomassie; Fig. 1 lanes 1, 2, 5, 6
[2] = target: Komagataella phaffii Ero1 (Komagataella phaffii) (UniProt F2QNN1); assay: NEM trapping and non-reducing SDS-PAGE; IMAC eluate of co-expressed Ero1 and Pdi1 treated with 25 mM NEM, SDS-PAGE without reducing agent; Fig. 1 lane 1
[3] = target: Komagataella phaffii Ero1 (Komagataella phaffii) (UniProt F2QNN1); assay: pull-down; co-expression of Erp41 and Ero1 in the presence of KpPDI CyDisCo (Pdi1, Ero1 and Erp41 together) in E. coli, IMAC on HisPur cobalt agarose, SDS-PAGE; Fig. 1 lane 7

binding [1]: binds
binding [2]: binds
binding [3]: binds
Substance: Komagataella phaffii Pdi1 (from UniProt F2QY05) (enzyme)
